Patent US4053603A, “Benzylisoquinoline derivatives, and use as anti-arrhythmic drugs” (Astra Pharmaceutical Products, Inc., priority 1976, dated 1977)

Legend:
[1] = tested on: chloroform-induced ventricular fibrillation; test: protection against chloroform-induced ventricular fibrillation in mice; format: in vivo, mouse (female Swiss albino, Ham/ICR); conditions: ED50^-1 in mmol/kg, standardized to compound 1 = 1
Description: (§1) Ventricular fibrillation was produced in female Swiss albino mice (Ham/ICR weighing 18-25g.) essentially according to the method described by Lawson in J. Pharm, Exp. Therap. 160, 22 (1968).
The mice were placed individually into a 2,000 ml. beaker with cotton and 50 ml. of chloroform. Immediately after cessation of respiration the mouse was removed from the beaker, the thorax opened and the heart examined for the presence or absence of ventricular fibrillation. Each heart was stimulated by touching with forceps, and the nature of the cardiac rhythm was noted and confirmed by electrocardiographic recordings. The heart was considered to be fibrillating if fine tremulous movements were present on the surface of the ventricle and persisted for at least five seconds after the mechanical stimulus. […]
For initial evaluation of antiarrhythmic activity and toxicity of test compounds, a dose of 100 mg/kg (calculated for the base form, 1% solution in 0.9% saline, adjusted to pH 6-7) was administered subcutaneously to a group of 10 non-fasted, randomly selected mice. […]
The data obtained from the three point assay was computer-analyzed using Berkson's minimum logit chi square analysis. […] Relative potency figures were calculated (ED50^-1 in mmol/kg) and standardized to give a potency of 1 for compound 1.

mice = test: central nervous system toxicity observation in mice (ataxia, convulsions, loss of righting reflex, death); format: in vivo, mouse (female Swiss albino, Ham/ICR)
Description: as §1
For initial evaluation of antiarrhythmic activity and toxicity of test compounds, a dose of 100 mg/kg (calculated for the base form, 1% solution in 0.9% saline, adjusted to pH 6-7) was administered subcutaneously to a group of 10 non-fasted, randomly selected mice. […] After 20 minutes they were exposed to chloroform vapors and tested for protection against fibrillation.

[2] = 100 mg/kg s.c., 10 mice, 20 min observation

Q: How did the “relative Potency (molar basis)” value [1] turn out when `CCN(CC)CC(=O)Nc1c(C)cccc1C` [Lidocaine, 2-diethylamino-2',6'-acetoxylidide, reference compound] was run?
A: 2

Q: And the “Toxicity: Ataxia (number of mice)” value (mice; [2])?
A: 10

Q: And the “Toxicity: Con. (Convulsions) (number of mice)” value (mice; [2])?
A: 10

Q: What about the “Toxicity: LRR (Loss of righting reflex) (number of mice)” value (mice; [2]) of the same compound?
A: 10

Q: What about the “toxicity (in words)” value (mice; mice) of the same compound?
A: high toxicity
